Laboratory results: PubChem BioAssay AID602196 (INSERM, 2012)
Assay: 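Genes whose knock-down alters cisplatin killing of lung cancer cells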. Cell system: human A549 lung cancer cells. Reagents: siRNA pair against human genes. Duration: 48 h transfection before cisplatin; time from cisplatin to read-out not stated. Challenge: cisplatin at a dose killing half of control-siRNA cells; exact dose and duration not given. Measured: 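Shift in cisplatin death relative to control siRNA, from -50 (all cells die) to +50 (no cells die); siRNAs harmful on their own scored 0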. Direction: two-siRNA summed score (-2 to +2): higher = both siRNAs protect from cisplatin killing; -2 means both sensitise. Active means: 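Each siRNA scores 0 if harmful alone by LDH or WST-1, otherwise +1 if it reduces and -1 if it increases cisplatin killing; a gene is active when both siRNAs agree (sum +2 or -2)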. Meaning of the calls: active = both siRNAs shift cisplatin killing the same way; inactive = no consistent shift, or siRNA harmful alone.
Here is an unselected part of about 23,000 reagents. Over the whole deposit, 455 (2%) got an active call. 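Active includes both protection and sensitisation; some change values fall well beyond the stated -50 to +50 range.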 Further read-outs or replicates are left out here. No sequences are given here. Not given: the amount of reagent.

Target gene | two-siRNA summed score (-2 to +2) | activity call
LOC442072 | 0 | inactive
DDB1 | 0 | inactive
LINC01521 | 0 | inactive
CABP1 | 1 | inactive
LOC391538 | 0 | inactive
OR52N4 | 1 | inactive
CST5 | 0 | inactive
ACER1 | 0 | inactive
LOC440689 | 0 | inactive
MBD3L1 | 0 | inactive
SSU72 | 0 | inactive
LOC400988 | 0 | inactive
PARVA | 0 | inactive
FAM153A | 0 | inactive
LOC440229 | 0 | inactive
LOC400687 | 0 | inactive
DLD | 1 | inactive
DENND1A | 0 | inactive
CTNNBL1 | 0 | inactive
RPL38 | 0 | inactive
STYK1 | 0 | inactive
LOC203510 | 2 | active
CXCL10 | -1 | inactive
